Assay results: US10864248B2, “Dab2 inhibitors for the prevention and treatment of cystic fibrosis” (Trustees of Dartmouth College, priority 2014, dated 2020)
Read-outs that look alike come from different tables or passages of the source. At least one structure is not confirmed: it was looked up by name or label, or the drawing left a doubt. Peptide text beside a SMILES is read from it. * marks the point of attachment. Biotin = O=C1N[C@H]2[C@H](CS[C@H]2CCCCC(=O)*)N1; Ahx = NCCCCCC(=O)O

Protein sequences, listed by entry. Tags and fused reporters are not part of them. Residues count along the entry.
UniProt P98082, 33-191: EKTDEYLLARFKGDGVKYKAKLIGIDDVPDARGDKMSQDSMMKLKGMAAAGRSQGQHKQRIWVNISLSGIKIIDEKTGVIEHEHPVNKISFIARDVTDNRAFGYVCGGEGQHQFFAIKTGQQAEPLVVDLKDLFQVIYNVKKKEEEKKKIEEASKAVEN

Experiments:
Dab2-DH domain [1] = biological target: T1, Dab2-DH domain (Homo sapiens (Human), UniProt P98082); experiment: Fluorescence polarization competition binding of unlabeled peptides (reporter F*-STA02); conditions: FP competition, 27° C.; read-out: Ki ± SD
Description: Fluorescence Polarization. Fluorescence polarization (FP) data were measured on a microplate reader (Tecan Infinite M1000, Mannedorf, Switzerland) at 27° C. […] Plates were mixed by vibration, centrifuged for 2 minutes at 1200 g to remove air bubbles and allowed to equilibrate for 30 minutes at room temperature before measurement. […] Unlabeled competitor peptides were serially diluted and mixed with the protein-reporter mix. […] [formula] where [P]tot=total protein concentration and Kd=equilibrium dissociation constant of [PL]. Competition isotherms were fit using a non-linear least-squares algorithm implemented in EXCEL using the SOLVER function. rexp was fit to: [formula] where the free protein concentration [P] in the presence of both the reporter and competitive inhibitor was calculated as a function of the total protein and ligand concentrations and the equilibrium dissociation constant Kd (known) and Ki (fit), respectively, by exact analytical solution of the resulting cubic equation (Wang, et al. (1995) Biotechnol. Prog. 11:558-64).

Dab2-DH domain [2] = biological target: T1, Dab2-DH domain; experiment: Isothermal titration calorimetry; assay type: binding
Description: Isothermal Titration calorimetry. Dab2-DH protein was dialyzed versus 150 mM NaCl, 25 mM Tris pH 8.0, and 0.02% NaN3 or 150 mM NaCl, 25 mM NaH2PO4/Na2HPO4 pH 7.4, and 0.02% NaN3. Peptides were solubilized in recovered and degassed dialysis buffer. […] Thus, to maintain a constant DMSO concentration between the cell chamber (protein solution) and the syringe (peptide solution), 1-2% DMSO was added to the ITC-protein solution. Experiments were performed at 15, 25, or 35±0.2° C. on a MICROCAL VP-ITC calorimeter. A 2 μL peptide injection over 4.1 seconds preceded 30-10 μL injections over 300 seconds each. The system was allowed to equilibrate (reach baseline) between injections for 300 seconds while stirring at a speed of 300 rpm. ITC thermograms were fit to a single-site binding model using Origin software package v11. The ITC data were presented by showing the baseline-adjusted titration as heat flow versus time (top) and the peak-integrated concentration-normalized molar heat flow per injection versus the peptide: protein molar ratio (bottom). To account for the contribution of protein, peptide, and buffer protonation enthalpies to the binding enthalpies and consequently the binding constants, titrations in buffers with known and distinct heats of ionization (Tris and Phosphate buffers) were conducted.

Row | Ki (Dab2-DH domain [1]) [nM] | Kd (Dab2-DH domain [2]; ITC, Tris buffer, 25° C., read-out: Kd) [nM] | Kd (Dab2-DH domain [2]; ITC, phosphate buffer, 25° C., read-out: Kd) [nM] | Kd (Dab2-DH domain [2]; extrapolation to 37° C., read-out: physiological Kd) [nM] | SMILES
1 | 155 ± 56 |  |  |  | CSCC[C@H](NC(=O)[C@H](CC(N)=O)NC(=O)[C@H](CCC(=O)O)NC(=O)[C@H](CCC(N)=O)NC(=O)[C@@H]1CCCN1C(=O)[C@H](CCC(N)=O)NC(=O)[C@H](Cc1ccc(O)cc1)NC(=O)[C@H](CC(N)=O)NC(=O)[C@@H]1CCCN1C(=O)[C@H](CC(N)=O)NC(=O)[C@H](CC(=O)O)NC(=O)[C@H](Cc1ccccc1)NC(=O)CNC(=O)CNC(=O)[C@H](CO)NC(=O)CNC(=O)[C@H](CO)NC(=O)CCCCCNC(=O)CCCC[C@@H]1SC[C@@H]2NC(=O)N[C@@H]21)C(=O)N[C@@H](CCC(N)=O)C(=O)N[C@@H](C)C(=O)O [BT-STA02] ({Biotin-Ahx}-SGSGGFDNPNYQPQENMQA-OH; C-terminus assumed)
2 | 390 ± 87 |  |  |  | CSCC[C@H](NC(=O)[C@H](CCC(N)=O)NC(=O)[C@H](CCC(=O)O)NC(=O)[C@H](Cc1ccccc1)NC(=O)[C@H](Cc1ccccc1)NC(=O)[C@H](CCC(N)=O)NC(=O)[C@H](Cc1ccc(O)cc1)NC(=O)[C@H](CC(N)=O)NC(=O)[C@@H]1CCCN1C(=O)[C@H](CC(N)=O)NC(=O)[C@H](CC(=O)O)NC(=O)[C@H](Cc1ccccc1)NC(=O)CNC(=O)[C@H](CC(N)=O)NC(=O)[C@@H](N)CCC(N)=O)C(=O)N[C@@H](CCC(N)=O)C(=O)N[C@@H](CC(N)=O)C(=O)O [STA01] (H-QNGFDNPNYQFFEQMQN-OH; N-terminus and C-terminus assumed)
3 | 150 | 120 ± 29.2 | 151 | 563 | CSCC[C@H](NC(=O)[C@H](CC(N)=O)NC(=O)[C@H](CCC(=O)O)NC(=O)[C@H](CCC(N)=O)NC(=O)[C@@H]1CCCN1C(=O)[C@H](CCC(N)=O)NC(=O)[C@H](Cc1ccc(O)cc1)NC(=O)[C@H](CC(N)=O)NC(=O)[C@@H]1CCCN1C(=O)[C@H](CC(N)=O)NC(=O)[C@H](CC(=O)O)NC(=O)[C@H](Cc1ccccc1)NC(=O)CNC(=O)[C@H](CC(N)=O)NC(=O)[C@@H](N)CCC(N)=O)C(=O)N[C@@H](CCC(N)=O)C(=O)N[C@@H](C)C(=O)O [STA02]
